Test results reported in article PMC9107465.
No constants are given. Whether binding was seen depends on the method and setting. Binding seen in cells or lysates may run through a third protein. Some entries that bind do so weakly or less than the wild type.

Chains of the proteins cited; added tags and fusions are not shown.
UniProt Q9Y6M1: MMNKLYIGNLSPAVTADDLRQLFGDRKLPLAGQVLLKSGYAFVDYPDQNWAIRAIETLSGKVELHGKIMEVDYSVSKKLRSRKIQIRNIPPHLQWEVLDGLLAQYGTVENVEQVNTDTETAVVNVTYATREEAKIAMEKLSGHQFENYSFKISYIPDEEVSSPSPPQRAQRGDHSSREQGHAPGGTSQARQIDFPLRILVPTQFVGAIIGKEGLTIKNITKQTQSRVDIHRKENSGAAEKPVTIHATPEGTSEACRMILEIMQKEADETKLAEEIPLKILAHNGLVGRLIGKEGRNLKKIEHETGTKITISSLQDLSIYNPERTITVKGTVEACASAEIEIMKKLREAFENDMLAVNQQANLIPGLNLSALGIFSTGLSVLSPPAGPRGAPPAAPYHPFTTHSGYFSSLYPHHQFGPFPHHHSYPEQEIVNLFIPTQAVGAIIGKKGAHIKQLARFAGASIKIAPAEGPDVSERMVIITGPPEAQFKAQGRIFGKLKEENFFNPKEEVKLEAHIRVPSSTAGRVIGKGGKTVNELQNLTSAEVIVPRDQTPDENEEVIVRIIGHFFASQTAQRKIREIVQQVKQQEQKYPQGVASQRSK
UniProt Q15717: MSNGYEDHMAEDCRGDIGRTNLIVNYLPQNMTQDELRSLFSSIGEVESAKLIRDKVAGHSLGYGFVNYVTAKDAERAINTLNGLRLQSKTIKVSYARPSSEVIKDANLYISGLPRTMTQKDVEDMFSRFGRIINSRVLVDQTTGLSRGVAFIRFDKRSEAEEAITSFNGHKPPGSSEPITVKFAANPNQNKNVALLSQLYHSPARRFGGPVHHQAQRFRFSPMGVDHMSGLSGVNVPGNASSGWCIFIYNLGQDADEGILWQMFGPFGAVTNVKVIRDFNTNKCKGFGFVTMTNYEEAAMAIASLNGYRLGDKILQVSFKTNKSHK

Experiments:
IGF2BP2 = IGF2BP2 (UniProt Q9Y6M1); assay: co-IP; cells harvested 48 h post-transfection, NP40 lysis buffer with protease inhibitor; indicated primary antibody or control IgG 1 h at 4 °C, protein A/G agarose beads overnight at 4 °C; western blot; both directions
HuR = HuR (UniProt Q15717); assay: as above

| binding (IGF2BP2) | binding (HuR) | Substance |
| --- | --- | --- |
| binds |  | HuR (from UniProt Q15717 1-326) |
|  | binds | IGF2BP2 (from UniProt Q9Y6M1 1-599) |
